We go through 3 substances from article PMC5826258.

Chains of the proteins cited; added tags and fusions are not shown. Lines headed by an entry give the natural chain unless they say otherwise; changes in a name come on top.
UniProt Q8CIR4: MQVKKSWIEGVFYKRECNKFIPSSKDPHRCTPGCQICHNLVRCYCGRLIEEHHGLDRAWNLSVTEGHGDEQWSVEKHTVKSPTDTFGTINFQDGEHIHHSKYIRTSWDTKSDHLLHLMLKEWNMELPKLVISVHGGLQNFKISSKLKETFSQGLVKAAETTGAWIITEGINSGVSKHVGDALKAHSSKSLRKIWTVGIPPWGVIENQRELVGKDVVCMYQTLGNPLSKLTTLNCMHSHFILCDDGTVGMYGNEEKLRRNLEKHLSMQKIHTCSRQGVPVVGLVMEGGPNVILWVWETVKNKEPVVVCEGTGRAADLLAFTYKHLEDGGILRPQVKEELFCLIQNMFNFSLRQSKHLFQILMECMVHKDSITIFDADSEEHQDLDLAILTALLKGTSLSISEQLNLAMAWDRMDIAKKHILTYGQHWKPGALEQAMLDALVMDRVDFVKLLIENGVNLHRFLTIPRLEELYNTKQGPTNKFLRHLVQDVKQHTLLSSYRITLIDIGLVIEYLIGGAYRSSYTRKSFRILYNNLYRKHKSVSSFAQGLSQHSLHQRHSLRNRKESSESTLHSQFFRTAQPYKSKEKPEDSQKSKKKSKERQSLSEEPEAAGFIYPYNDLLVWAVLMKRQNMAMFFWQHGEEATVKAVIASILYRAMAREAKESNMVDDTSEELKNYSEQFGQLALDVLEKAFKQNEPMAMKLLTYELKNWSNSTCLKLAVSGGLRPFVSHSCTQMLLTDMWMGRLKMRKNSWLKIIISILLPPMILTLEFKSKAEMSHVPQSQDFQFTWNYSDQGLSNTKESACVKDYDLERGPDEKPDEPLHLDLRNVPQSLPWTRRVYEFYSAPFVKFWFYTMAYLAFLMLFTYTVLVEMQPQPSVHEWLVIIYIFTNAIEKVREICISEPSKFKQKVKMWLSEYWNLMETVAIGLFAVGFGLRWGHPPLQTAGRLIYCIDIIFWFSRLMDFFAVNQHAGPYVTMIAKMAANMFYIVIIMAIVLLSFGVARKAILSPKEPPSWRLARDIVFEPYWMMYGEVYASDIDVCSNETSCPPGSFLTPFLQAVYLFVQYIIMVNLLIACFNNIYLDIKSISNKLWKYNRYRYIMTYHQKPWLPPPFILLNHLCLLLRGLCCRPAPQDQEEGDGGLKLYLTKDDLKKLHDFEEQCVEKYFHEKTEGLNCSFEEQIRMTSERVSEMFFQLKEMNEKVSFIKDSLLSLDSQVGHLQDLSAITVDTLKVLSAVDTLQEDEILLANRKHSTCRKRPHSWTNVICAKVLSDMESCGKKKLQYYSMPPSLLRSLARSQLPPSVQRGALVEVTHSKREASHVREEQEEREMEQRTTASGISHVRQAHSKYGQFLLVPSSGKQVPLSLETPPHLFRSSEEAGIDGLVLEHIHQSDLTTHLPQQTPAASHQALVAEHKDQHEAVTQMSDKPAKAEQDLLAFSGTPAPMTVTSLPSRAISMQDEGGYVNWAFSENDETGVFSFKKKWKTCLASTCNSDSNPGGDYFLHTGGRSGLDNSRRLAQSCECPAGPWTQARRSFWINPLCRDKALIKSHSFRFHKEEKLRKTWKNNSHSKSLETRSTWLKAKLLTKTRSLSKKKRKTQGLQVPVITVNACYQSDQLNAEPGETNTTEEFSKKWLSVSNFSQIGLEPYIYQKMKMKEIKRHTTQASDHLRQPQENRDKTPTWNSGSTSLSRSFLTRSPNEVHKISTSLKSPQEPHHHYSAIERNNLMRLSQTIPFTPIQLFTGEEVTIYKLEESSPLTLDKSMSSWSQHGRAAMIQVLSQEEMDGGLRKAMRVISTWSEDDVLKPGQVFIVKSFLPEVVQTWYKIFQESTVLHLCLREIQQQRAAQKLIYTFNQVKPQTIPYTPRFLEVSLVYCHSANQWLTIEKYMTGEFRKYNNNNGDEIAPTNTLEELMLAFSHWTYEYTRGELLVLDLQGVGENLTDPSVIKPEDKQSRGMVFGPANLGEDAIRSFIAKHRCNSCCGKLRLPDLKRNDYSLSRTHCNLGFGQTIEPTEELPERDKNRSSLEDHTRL
UniProt Q923J1: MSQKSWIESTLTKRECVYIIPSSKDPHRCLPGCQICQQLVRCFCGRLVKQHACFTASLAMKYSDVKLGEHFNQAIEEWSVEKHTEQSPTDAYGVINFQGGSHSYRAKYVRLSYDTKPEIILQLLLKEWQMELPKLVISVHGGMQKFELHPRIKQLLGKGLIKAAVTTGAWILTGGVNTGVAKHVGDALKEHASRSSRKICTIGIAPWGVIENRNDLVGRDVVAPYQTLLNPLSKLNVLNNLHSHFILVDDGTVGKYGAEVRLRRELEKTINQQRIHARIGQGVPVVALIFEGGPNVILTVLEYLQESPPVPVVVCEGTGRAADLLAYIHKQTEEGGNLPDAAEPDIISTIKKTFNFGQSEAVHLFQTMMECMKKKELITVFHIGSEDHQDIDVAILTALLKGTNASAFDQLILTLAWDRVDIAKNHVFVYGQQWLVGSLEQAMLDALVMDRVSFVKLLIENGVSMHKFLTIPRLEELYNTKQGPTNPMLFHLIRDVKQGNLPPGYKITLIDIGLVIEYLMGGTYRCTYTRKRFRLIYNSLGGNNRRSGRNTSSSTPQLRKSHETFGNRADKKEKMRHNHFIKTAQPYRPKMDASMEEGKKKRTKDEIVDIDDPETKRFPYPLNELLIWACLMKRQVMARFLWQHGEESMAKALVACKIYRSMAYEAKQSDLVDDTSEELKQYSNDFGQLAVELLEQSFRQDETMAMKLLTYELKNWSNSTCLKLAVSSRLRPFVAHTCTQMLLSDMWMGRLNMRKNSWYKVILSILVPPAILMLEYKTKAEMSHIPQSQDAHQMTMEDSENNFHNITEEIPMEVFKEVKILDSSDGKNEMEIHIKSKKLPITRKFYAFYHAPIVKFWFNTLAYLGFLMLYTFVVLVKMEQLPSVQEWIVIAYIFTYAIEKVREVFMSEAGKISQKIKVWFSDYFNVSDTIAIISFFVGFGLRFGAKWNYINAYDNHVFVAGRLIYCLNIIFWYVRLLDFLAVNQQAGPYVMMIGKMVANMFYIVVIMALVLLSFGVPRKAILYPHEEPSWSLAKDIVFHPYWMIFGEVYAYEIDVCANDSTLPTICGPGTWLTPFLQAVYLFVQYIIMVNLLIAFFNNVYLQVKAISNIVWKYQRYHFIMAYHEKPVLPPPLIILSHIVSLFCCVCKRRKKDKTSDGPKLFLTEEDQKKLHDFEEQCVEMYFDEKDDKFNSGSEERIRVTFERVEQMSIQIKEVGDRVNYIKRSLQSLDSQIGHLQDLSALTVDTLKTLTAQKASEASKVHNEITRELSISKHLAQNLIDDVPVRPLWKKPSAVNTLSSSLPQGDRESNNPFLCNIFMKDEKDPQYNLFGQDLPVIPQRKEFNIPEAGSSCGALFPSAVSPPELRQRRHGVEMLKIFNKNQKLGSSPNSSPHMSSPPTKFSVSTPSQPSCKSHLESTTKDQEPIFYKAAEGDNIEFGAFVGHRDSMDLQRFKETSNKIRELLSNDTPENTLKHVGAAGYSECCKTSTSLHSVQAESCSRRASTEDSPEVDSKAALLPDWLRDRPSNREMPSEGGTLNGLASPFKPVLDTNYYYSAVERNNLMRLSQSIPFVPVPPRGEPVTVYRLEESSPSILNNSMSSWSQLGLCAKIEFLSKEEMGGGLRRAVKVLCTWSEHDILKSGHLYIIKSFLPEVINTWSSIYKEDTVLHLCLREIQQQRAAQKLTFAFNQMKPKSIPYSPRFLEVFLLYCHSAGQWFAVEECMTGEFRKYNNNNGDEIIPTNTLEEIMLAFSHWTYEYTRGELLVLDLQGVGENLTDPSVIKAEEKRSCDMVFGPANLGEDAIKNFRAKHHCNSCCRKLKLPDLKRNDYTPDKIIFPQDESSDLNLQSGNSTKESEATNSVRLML
UniProt P15116: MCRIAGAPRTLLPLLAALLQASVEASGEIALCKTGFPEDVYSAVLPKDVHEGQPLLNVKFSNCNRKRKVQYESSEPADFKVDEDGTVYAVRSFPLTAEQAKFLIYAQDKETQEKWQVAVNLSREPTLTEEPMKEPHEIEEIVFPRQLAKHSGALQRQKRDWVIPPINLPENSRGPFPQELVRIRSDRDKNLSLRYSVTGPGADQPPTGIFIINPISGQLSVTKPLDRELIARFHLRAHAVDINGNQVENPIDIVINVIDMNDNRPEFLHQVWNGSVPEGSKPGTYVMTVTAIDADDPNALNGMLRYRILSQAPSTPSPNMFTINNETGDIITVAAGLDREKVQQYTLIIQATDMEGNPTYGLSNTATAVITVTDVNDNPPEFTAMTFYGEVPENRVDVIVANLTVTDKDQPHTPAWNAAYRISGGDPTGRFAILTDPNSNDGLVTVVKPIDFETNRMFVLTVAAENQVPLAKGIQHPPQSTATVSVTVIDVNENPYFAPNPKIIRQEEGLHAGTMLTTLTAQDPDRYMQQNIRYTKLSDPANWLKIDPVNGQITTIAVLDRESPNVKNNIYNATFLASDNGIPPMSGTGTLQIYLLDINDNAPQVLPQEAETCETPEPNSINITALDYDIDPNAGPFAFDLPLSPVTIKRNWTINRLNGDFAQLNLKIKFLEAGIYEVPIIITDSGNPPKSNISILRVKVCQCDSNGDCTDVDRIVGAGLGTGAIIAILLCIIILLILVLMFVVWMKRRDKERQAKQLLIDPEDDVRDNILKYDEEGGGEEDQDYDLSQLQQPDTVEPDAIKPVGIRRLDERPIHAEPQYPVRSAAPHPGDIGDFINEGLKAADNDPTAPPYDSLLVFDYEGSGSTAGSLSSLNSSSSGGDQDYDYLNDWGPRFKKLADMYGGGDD

In assay [1] the target is T1, USH1C (harmonin) (UniProt Q9ES64).
T1 sequence: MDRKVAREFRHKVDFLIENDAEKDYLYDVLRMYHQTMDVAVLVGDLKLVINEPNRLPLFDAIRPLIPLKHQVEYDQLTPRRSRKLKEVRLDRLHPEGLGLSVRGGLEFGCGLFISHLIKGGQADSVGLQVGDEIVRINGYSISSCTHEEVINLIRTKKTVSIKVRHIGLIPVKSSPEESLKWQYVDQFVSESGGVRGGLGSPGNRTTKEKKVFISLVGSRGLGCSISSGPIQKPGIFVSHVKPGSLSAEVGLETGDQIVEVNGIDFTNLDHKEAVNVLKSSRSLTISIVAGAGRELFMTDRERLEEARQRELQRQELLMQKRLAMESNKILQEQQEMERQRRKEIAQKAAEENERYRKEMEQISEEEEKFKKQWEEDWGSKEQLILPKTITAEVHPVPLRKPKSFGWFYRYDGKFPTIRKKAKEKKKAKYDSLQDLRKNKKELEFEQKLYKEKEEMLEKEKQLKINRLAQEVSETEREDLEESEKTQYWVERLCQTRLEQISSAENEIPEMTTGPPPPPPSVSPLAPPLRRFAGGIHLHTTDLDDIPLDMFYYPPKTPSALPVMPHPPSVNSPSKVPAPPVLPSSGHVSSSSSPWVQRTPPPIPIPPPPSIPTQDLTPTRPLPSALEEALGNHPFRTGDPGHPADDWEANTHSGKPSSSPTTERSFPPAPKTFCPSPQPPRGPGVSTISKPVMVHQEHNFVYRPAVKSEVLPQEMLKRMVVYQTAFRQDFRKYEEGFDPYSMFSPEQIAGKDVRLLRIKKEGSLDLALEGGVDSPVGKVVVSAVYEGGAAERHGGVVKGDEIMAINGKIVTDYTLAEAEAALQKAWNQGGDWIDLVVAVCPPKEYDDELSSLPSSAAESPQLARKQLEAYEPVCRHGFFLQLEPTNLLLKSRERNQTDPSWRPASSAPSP
In words: two-hybrid; yeast two-hybrid with USH1C as the bait; conducted as described (Zhao et al., 2014).

Assay [2] deals with HA-tagged TRPM6 (mouse, full length, canonical splice form) (mouse) (UniProt Q8CIR4). The experiment in a line: co-IP; HEK293T cells; HA-TRPM6 and HA-TRPM7 together (printed TRPM6/7) with PCDH15, its deletions, chimeras or CDH2; anti-HA agarose; blot with anti-PCDH15 or CDH2 antibody.
Assay [3] has as its target HA-tagged TRPM7 (mouse, full length, canonical splice form) (mouse) (UniProt Q923J1). The assay is described as above.

These are yes or no findings as the source states them, for the method shown. For some of these results: Binding can be weak; no strength is given. For some of these results: Binding seen in cells or lysates may run through a third protein.

Take “TRPV6, the 33 terminal amino acids with the PDZ-binding interface (PBI) (domain or fragment)”: the binding result in assay [1] is on record as “binds”.

As for CDH2 (N-cadherin) (from UniProt P15116), the binding result in assay [2] and in assay [3] was “no binding” in each case.

Regarding “TRPV6, the 33 terminal amino acids with the C-terminal seven amino acids deleted (domain or fragment)”, the binding result in assay [1] is “no binding”.
